In the supplement of paper PMC9254222:
The full ranking holds about 1,100 compounds; the median of “Wnt reporter firefly/Renilla luciferase ratio relative to plate median” is about 1.1, and the highest 2% start at about 1.6. The entries are a selection whose mix differs from that of the whole data set.

Test system: HEK293T (UBE3A T485A transfected, BAR Wnt reporter)
Experiment: Wnt reporter firefly/Renilla luciferase ratio relative to plate median (fold (linear ratio)); higher = more Wnt/beta-catenin reporter activation
Details: 24 h
Summary of the method: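 HEK293T cells carrying a transfected BAR firefly luciferase Wnt reporter, TK-Renilla and an expression plasmid were exposed to chemicals at 0.01–100 uM for 24 h, with dosing four hours after transfection. Readout used Dual-Glo luciferase. The firefly/Renilla ratio defined Wnt activity and raw Renilla defined cell health, each median-centred per plate. Figures are means of four biological replicates.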

Structure (SMILES) | Wnt reporter firefly/Renilla luciferase ratio (concentration: 0.1 uM) | Wnt reporter firefly/Renilla luciferase ratio (concentration: 1 uM) | Wnt reporter firefly/Renilla luciferase ratio (concentration: 10 uM) | Wnt reporter firefly/Renilla luciferase ratio (concentration: 100 uM) | Wnt reporter firefly/Renilla luciferase ratio (concentration: 0.01 uM)
CCC(=O)C(CC(C)N(C)C)(c1ccccc1)c1ccccc1.Cl (stereo unspecified) [Methadone hydrochloride] | 1.33 | 1.03 | 1.13 | 0.271 | –
ClC(Cl)=C(c1ccc(Cl)cc1)c1ccc(Cl)cc1 | 1.14 | 1.06 | 1.14 | 1.55 | –
CCOP(=O)(NC(C)C)Oc1ccc(SC)c(C)c1 (stereo unspecified) [Fenamiphos] | 0.758 | 0.93 | 0.83 | 0.243 | 0.946
CNC(=O)N(C)c1nnc(C(C)(C)C)s1 [Tebuthiuron] | 1.39 | 1.32 | 1.67 | 1.5 | 1.35
[N-]=[N+]=[N-].[Na+] [Sodium Azide] | – | 1.04 | 0.927 | – | 0.757
[N-]=[N+]=[N-].[Na+] [Sodium azide] | 0.827 | – | – | 0.529 | –
CCCCOCN(C(=O)CCl)c1c(CC)cccc1CC [Butachlor] | 1.2 | 1.02 | 0.788 | 0.293 | 1.17
CSC1=N[C@@](C)(c2ccccc2)C(=O)N1Nc1ccccc1 [Fenamidone] | 1.22 | 1.07 | 0.523 | 0.391 | 1.15
Cc1cc2c3c(c1)C(c1ccccc1)=N[C@@H](NC(=O)c1ccncc1)C(=O)N3CC2 | 1.17 | 1.15 | 1.35 | 0.366 | –
CC(C)(C)c1cc(C(C)(C)C)c(O)c(C(C)(C)C)c1 [2,4,6-Tris(tert-butyl)phenol] | 0.958 | 0.98 | 0.697 | 0.822 | –
NCCO.O=C(O)c1nc(Cl)ccc1Cl [Clopyralid-olamine] | 0.94 | 1.18 | 1.56 | 2.61 | 0.868
N#Cc1cccnc1 [3-Pyridinecarbonitrile] | 0.974 | 1.13 | 1.25 | 1.35 | –
O=C(O)C(F)(F)C(F)(F)C(F)(F)C(F)(F)C(F)(F)C(F)(F)C(F)(F)C(F)(F)F | 1.29 | 0.95 | 1.12 | 0.369 | –
O=C(N[C@H](c1ccccc1)[C@@H]1CN2CCC1CC2)c1c(Cl)ccc(C(F)(F)F)c1Cl | 1.24 | 0.995 | 0.425 | 0.38 | –
CCC(C)(c1ccc(O)cc1)c1ccc(O)cc1 [Bisphenol B] | 1.11 | 0.969 | 0.999 | 0.0398 | –
CC(C)Oc1cc(-n2nc(C(C)(C)C)oc2=O)c(Cl)cc1Cl [Oxadiazon] | 0.914 | 1.14 | 1.09 | 0.281 | 0.838
O=[As][O-].[Na+] [Sodium arsenite] | 0.998 | 0.538 | – | – | 1.25
O=[N+]([O-])c1ccc(Cl)cc1 [1-Chloro-4-nitrobenzene] | 1.04 | 1.2 | 1.02 | 1.38 | –
CC(C)(O)c1cnn2c(-c3ccc(F)c(-c4c(F)cccc4C#N)c3)cnc2n1 | 1.06 | 0.767 | 0.811 | 0.559 | –
O=C(O)c1nc(Cl)ccc1Cl [Clopyralid] | 1.81 | 1.02 | 0.988 | 1.12 | 1.17
CC(C)C1(C)N=C(c2nc3ccccc3cc2C(=O)O)NC1=O (stereo unspecified) [Imazaquin] | 0.916 | 1.12 | 1.04 | 1.23 | 0.867
CN(C)c1nc(=O)n(C2CCCCC2)c(=O)n1C [Hexazinone] | 1.28 | 1.13 | 1.31 | 1.31 | 1.04

Structure (SMILES) | Wnt reporter firefly/Renilla luciferase ratio (concentration: 0.1 uM) | Wnt reporter firefly/Renilla luciferase ratio (concentration: 1 uM) | Wnt reporter firefly/Renilla luciferase ratio (concentration: 10 uM) | Wnt reporter firefly/Renilla luciferase ratio (concentration: 100 uM) | Wnt reporter firefly/Renilla luciferase ratio (concentration: 0.01 uM)
CCCCCCCCCc1ccc(O)cc1 [4-Nonylphenol] | 0.995 | 0.971 | 1.16 | 0.953 | –
CC(C)(c1ccccc1)c1ccc(O)cc1 [4-Cumylphenol] | 0.985 | 1.25 | 1.06 | – | –
CCCN(CCC)c1c([N+](=O)[O-])cc(S(N)(=O)=O)cc1[N+](=O)[O-] [Oryzalin] | 1.11 | 0.982 | 1.26 | 0.391 | 0.986
O=C(Oc1ccc(Br)cc1)N1CCN2CCC1CC2 | 1.11 | 0.988 | 1.09 | 0.334 | –
Cc1ccccc1N [2-Methylaniline] | 0.986 | 0.825 | 1.14 | 1.03 | –
Cc1ccccc1O [o-Cresol] | 1.01 | 0.966 | 1.1 | 1.15 | –
Cc1ccc(/N=C/N(C)/C=N/c2ccc(C)cc2C)c(C)c1 [Amitraz] | 1.33 | 1.21 | 1.03 | – | 1.05
CCNc1nc(Cl)nc(NCC)n1 [Simazine] | 1.19 | 1.01 | 1.06 | 1.52 | 1
O=[N+]([O-])c1ccccc1 [Nitrobenzene] | 0.922 | 0.907 | 1.31 | 1.49 | –
Cc1sc2c(c1C)C(c1ccc(Cl)cc1)=NC(CC(=O)OC(C)(C)C)c1nnc(C)n1-2 (racemic) | 0.189 | 0.19 | 0.159 | 0.255 | 0.31
O=C(O)C(F)(F)C(F)(F)C(F)(F)C(F)(F)C(F)(F)C(F)(F)C(F)(F)F | 1.71 | – | – | – | –
C=C(C)C(=O)[O][Sn]([CH2]CCC)([CH2]CCC)[CH2]CCC [Tributyltin methacrylate] | 0.639 | 0.638 | 0.679 | – | –
O=NN(c1ccccc1)c1ccccc1 [N-Nitrosodiphenylamine] | 1.58 | 0.967 | 1.37 | 0.944 | –
CCCN(CCC)c1c([N+](=O)[O-])cc(C(F)(F)F)cc1[N+](=O)[O-] [Trifluralin] | 0.895 | 0.886 | 0.94 | 1.1 | 0.696
CNC(=O)ON=CC(C)(C)SC [Aldicarb] | 1.15 | 1.07 | 1.38 | 1.49 | 1.15
CCCN(CCC)N=O [N-Nitrosodipropylamine] | 1.18 | 0.939 | 1.15 | 1.06 | –
COP(=S)(OC)Oc1nc(Cl)c(Cl)cc1Cl [Chlorpyrifos-methyl] | 0.841 | 1.02 | 1.18 | 0.905 | 0.792
CCCCC(O)(Cn1cncn1)c1ccc(Cl)cc1Cl (stereo unspecified) [Hexaconazole] | 0.897 | 1 | 0.919 | 0.397 | 0.917
ClC1=C(Cl)C2(Cl)C3C(Cl)C(Cl)CC3C1(Cl)C2(Cl)Cl (stereo unspecified) [Chlordane] | 0.951 | 1.02 | 1.34 | 1.4 | –
CC1C(c2ccc(Cl)cc2)SC(=O)N1C(=O)NC1CCCCC1 (stereo unspecified) [Hexythiazox] | 1.15 | 0.988 | 0.99 | 0.197 | 1.1
Clc1cccc(Cl)c1 [1,3-Dichlorobenzene] | – | – | – | 1.77 | –
COC(=O)N(OC)c1ccccc1COc1ccn(-c2ccc(Cl)cc2)n1 [Pyraclostrobin] | 0.977 | 0.555 | 0.524 | 0.536 | 0.779

Structure (SMILES) | Wnt reporter firefly/Renilla luciferase ratio (concentration: 0.1 uM) | Wnt reporter firefly/Renilla luciferase ratio (concentration: 1 uM) | Wnt reporter firefly/Renilla luciferase ratio (concentration: 10 uM) | Wnt reporter firefly/Renilla luciferase ratio (concentration: 100 uM) | Wnt reporter firefly/Renilla luciferase ratio (concentration: 0.01 uM)
N#CN [Cyanamide] | 1.11 | 1.33 | 1.1 | 1.18 | 1.07
O=S(=O)([O-])C(F)(F)C(F)(F)C(F)(F)C(F)(F)C(F)(F)C(F)(F)F.[K+] | 1.21 | 0.967 | 1.07 | 1.21 | –
CC(c1ccc(O)cc1)(c1ccc(O)cc1)c1ccc(O)cc1 [4,4',4"-Ethane-1,1,1-triyltriphenol] | 0.816 | 0.754 | 0.745 | – | –
O=C(NC(=O)c1cc(F)c(F)cc1Cl)Nc1cc(F)ccc1N1CCC(C(=O)O)CC1 | 1.08 | 1.29 | 0.978 | 0.514 | –
Oc1c(Cl)c(Cl)c(Cl)c(Cl)c1Cl [Pentachlorophenol] | 1.04 | 1.08 | 0.963 | 0.759 | –
CCCCSP(=O)(SCCCC)SCCCC [Tribufos] | 1.4 | 1.17 | 1.38 | 0.296 | 1.21
[OH][Sn]([c]1ccccc1)([c]1ccccc1)[c]1ccccc1 [Triphenyltin hydroxide] | 1.32 | 0.361 | – | – | 1.28
CCCCN(CCCC)N=O [N-Nitrosodibutylamine] | 0.968 | 0.902 | 1.04 | 1.27 | –
Cc1ccc(N=C=O)cc1N=C=O [Toluene-2,4-diisocyanate] | 0.92 | 1.12 | 1.04 | 0.634 | –
COC(=O)Nc1nc2ccccc2[nH]1 [Carbendazim] | 1.09 | 1.16 | 0.661 | 0.13 | –
CC(=O)[O][Hg][c]1ccccc1 [Phenylmercuric acetate] | 1.22 | 0.898 | – | – | –
C[Si](Cn1cncn1)(c1ccc(F)cc1)c1ccc(F)cc1 [Flusilazole] | 1.15 | 1.14 | 0.76 | 0.233 | 1.16
Nc1ccc(Cc2ccc(N)cc2)cc1 [4,4'-Methylenedianiline] | 0.986 | 0.929 | 0.859 | 0.755 | –
c1cc2c3c(cccc3c1)CC2 [Acenaphthene] | 1.11 | 0.989 | 1.28 | 1.37 | –
S=C1NCCN1 [Ethylene thiourea] | 0.79 | 0.959 | 0.777 | 1.14 | 0.774
OCCOc1ccccc1 [2-Phenoxyethanol] | 0.531 | 0.545 | 0.71 | 0.949 | 0.516
CC12CC1(C)C(=O)N(c1cc(Cl)cc(Cl)c1)C2=O (stereo unspecified) [Procymidone] | 1.01 | 0.884 | 0.894 | 0.955 | –
CCCCC(CC)COC(=O)c1ccccc1C(=O)O (stereo unspecified) | 0.861 | 1.04 | 0.979 | 0.821 | 1.04
COC(=O)C(C)Oc1ccc(Oc2ccc(Cl)cc2Cl)cc1 (stereo unspecified) [Diclofop-methyl] | 1.28 | 1.98 | 1.27 | 1.29 | 1.1
C=CCC1=C(C)[C@@H](OC(=O)[C@@H]2[C@@H](C=C(C)C)C2(C)C)CC1=O [S-Bioallethrin] | 1.29 | 1.27 | 1.22 | 1.09 | 1.29
CNC(=O)CSP(=S)(OC)OC [Dimethoate] | 0.993 | 1.02 | 1.02 | 1.1 | 0.95
COc1cc(OC)nc(NC(=O)[N-]S(=O)(=O)c2ncccc2OCC(F)(F)F)n1.[Na+] [Trifloxysulfuron-sodium] | 1.02 | 1.23 | 1.22 | 1.52 | 1.06

Reformatted with each value named: entries from further up
CCCCOCN(C(=O)CCl)c1c(CC)cccc1CC [Butachlor]
  Wnt reporter firefly/Renilla luciferase ratio (concentration: 0.1 uM): 1.2
  Wnt reporter firefly/Renilla luciferase ratio (concentration: 1 uM): 1.02
  Wnt reporter firefly/Renilla luciferase ratio (concentration: 10 uM): 0.788
  Wnt reporter firefly/Renilla luciferase ratio (concentration: 100 uM): 0.293
  Wnt reporter firefly/Renilla luciferase ratio (concentration: 0.01 uM): 1.17
N#Cc1cccnc1 [3-Pyridinecarbonitrile]
  Wnt reporter firefly/Renilla luciferase ratio (concentration: 0.1 uM): 0.974
  Wnt reporter firefly/Renilla luciferase ratio (concentration: 1 uM): 1.13
  Wnt reporter firefly/Renilla luciferase ratio (concentration: 10 uM): 1.25
  Wnt reporter firefly/Renilla luciferase ratio (concentration: 100 uM): 1.35
COC(=O)Nc1nc2ccccc2[nH]1 [Carbendazim]
  Wnt reporter firefly/Renilla luciferase ratio (concentration: 0.1 uM): 1.09
  Wnt reporter firefly/Renilla luciferase ratio (concentration: 1 uM): 1.16
  Wnt reporter firefly/Renilla luciferase ratio (concentration: 10 uM): 0.661
  Wnt reporter firefly/Renilla luciferase ratio (concentration: 100 uM): 0.13
c1cc2c3c(cccc3c1)CC2 [Acenaphthene]
  Wnt reporter firefly/Renilla luciferase ratio (concentration: 0.1 uM): 1.11
  Wnt reporter firefly/Renilla luciferase ratio (concentration: 1 uM): 0.989
  Wnt reporter firefly/Renilla luciferase ratio (concentration: 10 uM): 1.28
  Wnt reporter firefly/Renilla luciferase ratio (concentration: 100 uM): 1.37
